Source: patent US20090170939A1, “Use of Fenofibrate or a Derivative Thereof for Preventing Diabetic Retinopathy” (Laboratoires Fournier S.A., priority 2005, published 2009)
At least one compound was matched to its structure with a doubt left.

How the values were obtained:
[1] = system: diabetic retinopathy in patients with type 2 diabetes; experiment: FIELD study: laser treatment for diabetic retinopathy (tertiary outcome); type: in vivo, human; settings: result in words
Description: As fibrates are known to correct the typical dyslipidaemia of diabetes, their role in cardiovascular risk reduction in diabetes may be especially important. A study called Fenofibrate Intervention and Event Lowering in Diabetes (FIELD) has been carried out which study is a multicentre, double-blind, placebo-controlled trail evaluating the effects on coronary morbidity and mortality of long-term treatment with fenofibrate to elevate high-density lipoprotein (HDL) cholesterol levels and lower triglyceride (TG) levels in patients with type 2 diabetes and total blood cholesterol between 3 and 6.5 mmol/L (115 and 250 mg/dL) at study entry. In type 2 diabetes, rates of coronary heart disease (CDH) are 3 to 4 times higher than those of persons without diabetes at any given level of blood cholesterol, and at any given age. […] Further, people with type 2 diabetes have both higher in hospital mortality after myocardial infarction (MI) and a poorer outcome in the subsequent years, losing on average between 5 and 10 years of life expectancy.
The study was is randomized, double-blind, placebo-controlled parallel-group trial among middle-aged to elderly people with type 2 diabetes mellitus considered to be at increased risk of CHD. […]

[2] = system: plasma lipid fractions and fibrinogen; settings: cited from earlier work
[3] = system: established coronary atherosclerosis in type 2 diabetes; settings: over 3 years; cited from earlier work

In the case of `CC(C)OC(=O)C(C)(C)Oc1ccc(C(=O)c2ccc(Cl)cc2)cc1` [Fenofibrate, 1-methylethyl ester (isopropyl ester) of fenofibric acid], the “Need for retinal laser therapy vs placebo-allocated patients” value [1] is listed as “fewer treatment by retinal laser therapy”, the “Reduction in plasma fibrinogen” value ([2]; in vivo) is listed as “about 15%” and the HDL cholesterol elevation ([2]; long-term use) is listed as 10-15%. For the same molecule, the “Reductions in plasma triglycerides” value ([2]; long-term use) was 30-40%, the “Fall in total cholesterol” value ([2]; long-term use, mediated through a reduction in LDL cholesterol) was at least 15% and the “Progression of established coronary atherosclerosis vs matching placebo” value [3] was “reduced progression of established coronary atherosclerosis”.
